No constants are given. Whether binding was seen depends on the method and setting. Binding seen in cells or lysates may run through a third protein. Some results given as binding are weak or reduced against the parent protein; the word gives no strength.

Amino acid sequences for entries named in this document (tags omitted). A change or cut given only in a name is not applied to a line headed by its entry. Chains listed by the source or under a name are the forms on record and can include a tag or linker. Residues count along the entry.
UniProt Q64010: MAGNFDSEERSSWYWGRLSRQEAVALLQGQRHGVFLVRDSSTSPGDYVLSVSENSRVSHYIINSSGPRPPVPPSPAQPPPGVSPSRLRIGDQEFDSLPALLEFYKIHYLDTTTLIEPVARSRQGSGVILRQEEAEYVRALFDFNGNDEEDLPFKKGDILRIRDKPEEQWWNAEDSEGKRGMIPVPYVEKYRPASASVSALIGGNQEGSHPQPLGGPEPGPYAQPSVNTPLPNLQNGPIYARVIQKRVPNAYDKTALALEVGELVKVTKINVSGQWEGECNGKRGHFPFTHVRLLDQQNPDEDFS
HA-tagged CRKI: residues 1-204 of Q64010

Test [1] addresses T1, muscle-specific kinase (MUSK), endogenous mouse (mouse (endogenous in mouse muscle and mouse myotubes)) (UniProt Q61006).
T1 sequence (chain, tyrosine phosphorylated (level depends on genotype and AGRIN)): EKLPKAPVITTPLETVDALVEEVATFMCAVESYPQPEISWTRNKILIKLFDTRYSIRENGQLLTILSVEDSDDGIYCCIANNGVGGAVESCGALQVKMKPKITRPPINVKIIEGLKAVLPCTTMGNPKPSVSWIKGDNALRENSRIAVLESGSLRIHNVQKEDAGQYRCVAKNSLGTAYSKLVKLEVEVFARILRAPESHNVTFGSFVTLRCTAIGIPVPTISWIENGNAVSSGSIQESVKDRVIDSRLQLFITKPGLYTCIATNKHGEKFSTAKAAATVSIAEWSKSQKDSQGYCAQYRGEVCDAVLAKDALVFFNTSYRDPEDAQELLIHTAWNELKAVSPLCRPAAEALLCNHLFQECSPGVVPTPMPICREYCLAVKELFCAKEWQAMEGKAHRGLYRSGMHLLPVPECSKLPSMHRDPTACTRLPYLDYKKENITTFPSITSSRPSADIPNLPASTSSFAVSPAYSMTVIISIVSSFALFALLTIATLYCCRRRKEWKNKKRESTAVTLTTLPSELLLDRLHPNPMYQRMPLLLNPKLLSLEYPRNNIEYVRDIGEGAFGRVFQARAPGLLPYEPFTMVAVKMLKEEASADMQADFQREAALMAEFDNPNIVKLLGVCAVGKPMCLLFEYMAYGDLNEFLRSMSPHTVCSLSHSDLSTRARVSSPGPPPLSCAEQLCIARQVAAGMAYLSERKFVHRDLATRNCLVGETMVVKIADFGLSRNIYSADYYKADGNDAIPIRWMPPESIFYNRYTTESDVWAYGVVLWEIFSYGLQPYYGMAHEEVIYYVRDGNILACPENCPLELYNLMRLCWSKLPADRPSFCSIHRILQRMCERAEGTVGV
Kind of test: co-IP; MUSK immunoprecipitated (antibody MUSK 1A, Protein G-agarose) from leg muscle lysates of E18.5 wild-type, Dok7 CM/CM and Dok7 2YF/2YF mice, 1% NP-40; blot for CRK; CRK normalized to MUSK was 2.8-fold lower in Dok7 CM/CM and 28% lower in Dok7 2YF/2YF mice.

For test [2], the target named is T2, MUSK JM region phosphopeptide (2), pY553, biotinylated.
T2 sequence (peptide, phosphotyrosine p(Y) (Y553); biotin (end not stated)): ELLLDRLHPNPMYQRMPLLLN
The test is described as follows: pull-down; biotinylated peptides on streptavidin-agarose beads, incubated overnight at 4 °C with pre-cleared lysates of transfected HEK 293 cells in lysis buffer with 1% NP-40; blot for HA; only the target purified.

For test [3], the target named is T3, MUSK JM region phosphopeptide (3), pY553, PTB-binding site mutated (N to A), biotinylated.
T3 sequence (peptide, phosphotyrosine p(Y) (Y553); biotin (end not stated)): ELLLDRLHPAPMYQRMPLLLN
The description is as above.

For the substance “CRK, endogenous mouse (from UniProt Q64010 1-304)”, the binding result in test [1] is reported as “binds”.
“HA-tagged CRKI (from UniProt Q64010-2 1-204)”: the binding entry in test [2] and in test [3] was “binds” each time.

The values above are taken from PMC8277574.
